Data taken from ChEMBL document CHEMBL3988442, “University of Dundee, Small-Polar-MMV Screening Library” (2021).

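Assay of Toxoplasma gondii numbers, read through their beta-galactosidase reporter with a colour substrate. Compounds at 50 µM. The record gives no direction; the compounds picked for IC50 retests had high values, so higher reads as fewer parasites. Size under these conditions: about 18,000 compounds, about 170 of them at 50% or above in at least one test.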

Results are given as percent effect.
How 0% and 100% were set is not recorded. Most values in the screen are low, and negative values occur.
This is an unselected part of the compounds tested.

COCCSCC(=O)Nc1ccn(C)n1 read 3.452%. Result for NCCc1nc(N)no1 was 19.26%. Result for c1ccc(OCCCOC2CNC2)cc1 was 0.6272%. For Cc1nnc(SCC(=O)NCCOc2nonc2C)s1 the result was -9.831%. For CS(=O)(=O)CCS(N)(=O)=O the result was 1.262%. Result for Cn1ncnc1CCNc1cc(C2CC(N)C2)ncn1 (stereo not shown) was 22.67%.

With NS(=O)(=O)c1cccc2c1CCCN2Cc1nccs1 the screen gave -3.939%. Result for COc1ccc(CCN)c(Cl)c1 was 6.537%. For CC(C)C(=O)N1CCCC1C(=O)Nc1ccc(F)cc1 (stereo not shown) the result was -1.971%. COCCN(C)CCNC(=O)c1ccc(C)s1 gave 26.55%. COC(=O)[C@@H]1C[C@@H](O)CN1Cc1ncc(C(C)(C)C)o1 gave 0.5389%. COC1CCN(C(=O)c2cccc(F)c2C)C1 (stereo not shown) read 32.95%.

Result for CCCn1ncnc1C(C)NC(=O)c1ccc(N)nc1 (stereo not shown) was -16.79%. For CCCN(C)C(CO)c1ccc(OC)cc1 (stereo not shown) the result was -2.385%. CCCS(=O)(=O)N[C@@H]1CN(C)C[C@H]1CN(C)C gave -4.95%. With CCCNC(=O)c1cccc(NCCCO)c1 the screen gave 3.735%. OC1(C(F)(F)F)CNC1 read -3.056%. With CNc1cccnc1N1CCCC1 the screen gave -8.551%.

COc1ccc(OCCSc2n[nH]c(N)n2)cc1 gave 17.81%. NC1CCCc2nc(N3CCC(CO)CC3)ncc21 (stereo not shown) gave 2.055%. With CCc1cc(C)c(C(=O)NC2CNC[C@@H]2OC)o1 (stereo partly shown) the screen gave -4.116%. For CNC(=O)c1ccc(S(=O)(=O)NC2CC2)o1 the result was -7.085%. Result for Cc1noc(C)c1CNC(=O)c1csc(S(N)(=O)=O)c1 was -3.715%. With CCCNC(=O)COC(=O)c1cc(OC)cc(OC)c1 the screen gave -26.2%.

For CN(Cc1cnccn1)C(=O)[C@H]1CCC[C@H](O)C1 the result was -2.474%. For CN(C(=O)CC(N)c1ccccc1)c1cccc(F)c1 (stereo not shown) the result was 3.1%. Cc1ccccc1C(=O)NCCCN1CCCC1 gave 7.758%. For COc1ncccc1NC(=O)C1CCN(C(C)=O)CC1 the result was -24.81%. With CCCC(CN)OC (stereo not shown) the screen gave -5.495%. O=C(NCCc1nnc[nH]1)C1SCCc2ccccc21 (stereo not shown) read -20.61%.

N#Cc1ccc(N2CCN(c3ccccn3)CC2)nc1 read -1.402%. For NC(=O)C1CCCCN1Cc1cn2ccccc2n1 (stereo not shown) the result was 1.781%. With CNCCCNS(=O)(=O)c1cccc(C)c1C#N the screen gave 16.4%. With NC(=O)C1CCN(C(=O)CN2CCOCC2)CC1 the screen gave 16.31%. For CN1CC(C(=O)N2CCc3sccc3C2)CC1=O (stereo not shown) the result was -10.01%. Result for Cc1ccnc(NS(=O)(=O)N2CCCCCC2)c1 was -2.985%.

Result for CCN(CC)S(=O)(=O)N1CCN(CC(N)=O)CC1 was 0.5061%.

Some entries from above, unchanged:

SMILES	Percent Effect
CCCC(CN)OC (stereo not shown)	-5.495%
Cc1noc(C)c1CNC(=O)c1csc(S(N)(=O)=O)c1	-3.715%
c1ccc(OCCCOC2CNC2)cc1	0.6272%